Measurements: patent publication US20190367445A1, “4-AMINO SUBSTITUTED PHENYLAMIDINE DERIVATIVES AND THEIR USE TO PROTECT CROPS BY FIGHTING UNDESIRED PHYTOPATHOGENIC MICOORGANISMS” (PI INDUSTRIES LTD., priority 2016, published 2019)
Some results were stated once for a whole list of compounds, not compound by compound. At least one compound was matched to its structure with a doubt left. Some compounds share one range, which may span the group rather than tell each member.

Columns and labels:
Type in all cases: cell-based
[1] = system: Septoria lycopersici (Leaf spot of tomato); test: In vitro test on Potato Dextrose Agar, radial growth: Septoria lycopersici; conditions: 300 ppm, radial growth after seven days, 25° C., 70% relative humidity
[2] = system: Alternaria solani (early blight of tomato/potato); test: In vitro test on Potato Dextrose Agar, radial growth: Alternaria solani; conditions: 300 ppm, radial growth after seven days, 25° C., 60% relative humidity
[3] = system: Rhizoctonia solani (Rice sheath blight/Potato black scurf); test: In vitro test on Potato Dextrose Agar, radial growth: Rhizoctonia solani; conditions: 300 ppm, radial growth after seven days, 25° C., 60% relative humidity
[4] = system: Colletotrichum capsici (anthracnose); test: In vitro test on Potato Dextrose Agar, radial growth: Colletotrichum capsici; conditions: 300 ppm, radial growth after seven days, 25° C., 60% relative humidity
[5] = system: Botrytis cinerea (Gray mold); test: In vitro test on Potato Dextrose Agar, radial growth: Botrytis cinerea; conditions: 300 ppm, radial growth after seven days, 22° C., 90% relative humidity

SMILES	control compared to untreated check [1]	control compared to untreated check [2]	control compared to untreated check [3]	control compared to untreated check [4]	control compared to untreated check [5]
CCN(C)C=Nc1cc(C)c(N(C)c2ccc(OC)cc2)cc1C [Compound 27]	80-100%	70 to 100%	70 to 100%	70 to 100%	
CCN(C)C=Nc1cc(C)c(Nc2ccccc2Cl)cc1Cl [Compound 34]	80-100%	70 to 100%	70 to 100%	70 to 100%	70 to 100%
CCN(C)C=Nc1cc(C)c(Nc2ccccc2F)cc1Cl [Compound 47]	80-100%	70 to 100%	70 to 100%		70 to 100%
CCN(C)C=Nc1cc(C)c(Nc2cccc(Cl)c2)cc1Cl [Compound 48]	80-100%	70 to 100%	70 to 100%	70 to 100%	70 to 100%
Cc1cc(N(C)c2cccc(Cl)c2)c(C)cc1N=CN1CCCCC1 [Compound 51]	80-100%	70 to 100%	70 to 100%	70 to 100%	
CCN(C)C=Nc1cc(C)c(Nc2cccc(Cl)c2)cc1C [Compound 55]	80-100%	70 to 100%	70 to 100%	70 to 100%	70 to 100%
CCN(C)C=Nc1cc(C)c(Nc2ccccc2C(F)(F)F)cc1C [Compound 57]	80-100%	70 to 100%	70 to 100%	70 to 100%	70 to 100%
CCN(C)C=Nc1cc(C)c(N(C)c2ccccc2C(F)(F)F)cc1C [Compound 58]	80-100%	70 to 100%	70 to 100%	70 to 100%	70 to 100%
CCN(C)C=Nc1cc(C)c(Nc2ccc(C(F)(F)F)cc2)cc1C [Compound 59]	80-100%	70 to 100%	70 to 100%	70 to 100%	70 to 100%
CCN(C)C=Nc1cc(C)c(Nc2cccc(OC(F)(F)F)c2)cc1C [Compound 60]	80-100%	70 to 100%	70 to 100%	70 to 100%	70 to 100%
CCN(C)C=Nc1cc(C)c(N(C)c2ccc(C(F)(F)F)cc2)cc1C [Compound 61]	80-100%	70 to 100%	70 to 100%	70 to 100%	70 to 100%
CCN(C)C=Nc1cc(C)c(N(C)c2cccc(OC(F)(F)F)c2)cc1C [Compound 62]	80-100%	70 to 100%	70 to 100%	70 to 100%	70 to 100%
CCN(C)C=Nc1cc(C)c(Nc2cccc(SC)c2)cc1C [Compound 63]	80-100%	70 to 100%	70 to 100%	70 to 100%	70 to 100%
CCN(C)C=Nc1cc(C)c(N(C)c2ccccc2Br)cc1C [Compound 64]	80-100%	70 to 100%	70 to 100%	70 to 100%	70 to 100%
CCN(C)C=Nc1cc(C)c(Nc2ccccc2C)cc1C [Compound 72]	80-100%	70 to 100%	70 to 100%	70 to 100%	70 to 100%
CCN(C)C=Nc1cc(C)c(N(C)c2ccccc2C)cc1C [Compound 77]	80-100%	70 to 100%	70 to 100%	70 to 100%	70 to 100%
CCN(C)C=Nc1cc(C)c(Nc2c(Cl)cc(C(F)(F)F)cc2Cl)cc1C [Compound 98]	80-100%	70 to 100%	70 to 100%	70 to 100%	70 to 100%

SMILES	control compared to untreated check [1]	control compared to untreated check [2]	control compared to untreated check [3]	control compared to untreated check [4]	control compared to untreated check [5]
CCN(C)C=Nc1cc(C)c(N(C)c2ccc(OC(F)(F)F)cc2)cc1C [Compound 106]	80-100%	70 to 100%	70 to 100%	70 to 100%	70 to 100%
CCN(C)C=Nc1cc(C)c(N(C)c2c(F)cccc2Cl)cc1Cl [Compound 112]	80-100%	70 to 100%	70 to 100%	70 to 100%	
CCN(C)C=Nc1cc(C)c(Nc2ccc(F)c(OC(F)(F)C(F)F)c2)cc1C [Compound 171]	80-100%	70 to 100%	70 to 100%	70 to 100%	
CCN(C)C=Nc1cc(F)c(Nc2ccc(F)c(OC(F)(F)C(F)F)c2)cc1C [Compound 180]	80-100%	70 to 100%	70 to 100%	70 to 100%	
CCN(C)C=Nc1cc(C)c(Nc2ccc(SC(F)F)cc2)cc1C [Compound 184]	80-100%	70 to 100%	70 to 100%	70 to 100%	
CCN(C)C=Nc1cc(C)c(Nc2ccccc2SC(F)F)cc1Cl [Compound 190]	80-100%	70 to 100%	70 to 100%	70 to 100%	
CCN(C)C=Nc1cc(C)c(N(C)c2ccccc2SC(F)F)cc1Cl [Compound 191]	80-100%	70 to 100%	70 to 100%	70 to 100%	
CCN(C)C=Nc1cc(C)c(Nc2ccc(F)c(OC(F)F)c2)cc1C [Compound 195]	80-100%	70 to 100%	70 to 100%	70 to 100%	
CCN(C)C=Nc1cc(C)c(Nc2cc(C)ccc2C)cc1C [Compound 198]	80-100%	70 to 100%	70 to 100%	70 to 100%	
CCN(C)C=Nc1cc(F)c(N(C)c2ccc(OC)cc2)cc1C [Compound 202]	80-100%	70 to 100%	70 to 100%	70 to 100%	
CCN(C)C=Nc1cc(C)c(Nc2cccc(OC(F)(F)C(F)F)c2)cc1C [Compound 205]	80-100%	70 to 100%	70 to 100%	70 to 100%	
CCN(C)C=Nc1cc(F)c(Nc2cccc(C)c2)cc1C [Compound 214]	80-100%	70 to 100%	70 to 100%		70 to 100%
CCN(C)C=Nc1cc(C)c(Nc2ccc(F)c(OC)c2)cc1Cl [Compound 217]	80-100%	70 to 100%		70 to 100%	70 to 100%
CCN(C)C=Nc1cc(C)c(Nc2ccc(F)c(OC)c2)cc1C [Compound 218]	80-100%	70 to 100%		70 to 100%	70 to 100%
CCN(C)C=Nc1cc(C)c(N(C)c2ccc(F)c(OC)c2)cc1Cl [Compound 222]	80-100%	70 to 100%	70 to 100%	70 to 100%	
CCN(C)C=Nc1c(F)cc(Nc2ccccc2)c(C)c1Br [Compound 223]	80-100%	70 to 100%			70 to 100%
CCN(C)C=Nc1c(F)cc(N(C)c2ccccc2)c(C)c1Br [Compound 225]	80-100%	70 to 100%		70 to 100%	70 to 100%
